From patent publication US20050288488
Construct, isoform or probe ends are uncertain for at least one entry. Results from cells or extracts need not show a direct contact.

Experiments:
[1] = system: AhR complex in SCC cell cytosol (Homo sapiens); assay: EMSA; details: 20 nM TCDD, ligand dependent, 35 ug cytosol; protein in an extract; protein details: cytosolic extract of human SCC cells; label: 32P end-label
[2] = system: AhR complex in Hepa 1c1c7 cytosol (Mus musculus); assay: EMSA; details: 20 nM TCDD, ligand dependent, 35 ug cytosol; protein in an extract; protein details: cytosolic extract of Hepa 1c1c7 cells; label: 32P end-label

“TCGAGTAGATCACGCAATGGGCCCAGC / TCGAGCTGGGCCCATTGCGTGATCTAC [DRE3]”: binds [1]; binds [2].
